This is an account of results in publication doi:10.1101/2024.04.01.587542.

Protein sequences, listed by entry. Tags and fused reporters are not part of them. Lines headed by an entry give the natural chain unless they say otherwise; changes in a name come on top.
UniProt P05556: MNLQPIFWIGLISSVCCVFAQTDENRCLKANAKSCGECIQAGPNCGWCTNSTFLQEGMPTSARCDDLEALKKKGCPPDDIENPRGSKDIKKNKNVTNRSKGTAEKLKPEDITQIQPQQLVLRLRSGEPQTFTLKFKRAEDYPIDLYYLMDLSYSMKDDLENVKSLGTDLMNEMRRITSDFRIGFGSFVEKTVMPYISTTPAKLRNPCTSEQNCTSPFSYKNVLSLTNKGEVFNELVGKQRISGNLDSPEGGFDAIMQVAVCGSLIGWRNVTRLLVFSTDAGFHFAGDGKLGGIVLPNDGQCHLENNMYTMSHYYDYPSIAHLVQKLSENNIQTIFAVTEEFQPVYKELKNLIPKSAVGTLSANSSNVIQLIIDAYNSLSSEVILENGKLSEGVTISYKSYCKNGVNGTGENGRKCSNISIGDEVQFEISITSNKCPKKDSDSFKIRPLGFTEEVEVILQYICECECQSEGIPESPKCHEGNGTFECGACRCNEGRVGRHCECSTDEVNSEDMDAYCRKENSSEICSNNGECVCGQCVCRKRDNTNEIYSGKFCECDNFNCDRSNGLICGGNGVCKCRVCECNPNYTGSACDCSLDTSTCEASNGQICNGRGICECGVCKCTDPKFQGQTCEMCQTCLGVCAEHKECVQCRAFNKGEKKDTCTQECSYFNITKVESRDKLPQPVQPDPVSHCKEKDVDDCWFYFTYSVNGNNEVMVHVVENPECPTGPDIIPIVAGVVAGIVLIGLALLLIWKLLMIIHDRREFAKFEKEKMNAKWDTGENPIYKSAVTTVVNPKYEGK
UniProt P14780: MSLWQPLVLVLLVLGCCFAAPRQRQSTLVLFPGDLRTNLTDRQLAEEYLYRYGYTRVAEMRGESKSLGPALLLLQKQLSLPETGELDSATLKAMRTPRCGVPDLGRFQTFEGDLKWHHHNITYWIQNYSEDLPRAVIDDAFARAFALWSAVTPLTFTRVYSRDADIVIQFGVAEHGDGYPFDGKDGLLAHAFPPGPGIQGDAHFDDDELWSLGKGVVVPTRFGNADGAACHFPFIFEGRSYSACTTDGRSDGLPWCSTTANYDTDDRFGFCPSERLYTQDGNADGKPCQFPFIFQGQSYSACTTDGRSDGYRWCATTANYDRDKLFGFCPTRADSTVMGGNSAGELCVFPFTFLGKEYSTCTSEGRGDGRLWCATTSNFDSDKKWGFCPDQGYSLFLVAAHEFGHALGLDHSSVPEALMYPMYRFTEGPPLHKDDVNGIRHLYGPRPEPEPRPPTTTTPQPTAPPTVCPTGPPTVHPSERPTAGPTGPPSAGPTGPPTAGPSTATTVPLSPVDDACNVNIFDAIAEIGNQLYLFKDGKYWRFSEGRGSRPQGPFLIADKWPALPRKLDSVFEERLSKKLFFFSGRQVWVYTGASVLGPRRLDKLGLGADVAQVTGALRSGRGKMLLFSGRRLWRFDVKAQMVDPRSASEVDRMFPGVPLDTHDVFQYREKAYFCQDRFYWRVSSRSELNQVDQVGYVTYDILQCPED

The target of assay [1] is integrin β1 (ITGβ1) (human (endogenous in HT1080)) (UniProt P05556). In words: co-IP.
For assay [2] the target is unchanged. In words: proximity ligation.

These are yes or no findings as the source states them, for the method shown. In cells and extracts the contact can be indirect. Binding can be weak; no strength is given.

Consider “Catalytically inactive MMP9 (E402A) fused to eGFP (Δcat) (from UniProt P14780) (enzyme)”, for which the binding entry in assay [1] and in assay [2] was “binds” each time.
As to “MMP9 full-length fused to eGFP (M9FL) (from UniProt P14780) (enzyme)”, the binding entry in assay [1] and in assay [2] was “binds” throughout.
